Assay results published in the supplement of paper PMC4604168 (melanoma cell lines).
The other results are listed elsewhere or left out. Many values rest on one well or one pass, so single values are uncertain.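 Cells were imaged in 1,536-well plates, and nuclei stained with an antibody against cleaved PARP were counted against all DNA-stained nuclei to give the apoptosis fraction. Screening doses were chosen to leave most cells alive, and resting and induced cleaved-PARP levels differ strongly between cell lines.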

Key:
Assay in all cases: cleaved PARP positive nuclei fraction relative to DMSO control; melanoma cells; higher = more apoptosis
Conditions in all cases: library dose: low library concentration; 72 h
501Mel = tested on: 501Mel
A101D = tested on: A101D
A2058 = tested on: A2058
A375 = tested on: A375
C32 = tested on: C32
CBRC008 = tested on: CBRC008 (line from a melanoma biopsy)
CBRC013 = tested on: CBRC013 (line from a melanoma biopsy)
CBRC014 = tested on: CBRC014 (line from a melanoma biopsy)
CBRC016 = tested on: CBRC016 (line from a melanoma biopsy)
CBRC017 = tested on: CBRC017 (line from a melanoma biopsy)

| SMILES | cleaved PARP positive nuclei fraction (501Mel) [%] | cleaved PARP positive nuclei fraction (A101D) [%] | cleaved PARP positive nuclei fraction (A2058) [%] | cleaved PARP positive nuclei fraction (A375) [%] | cleaved PARP positive nuclei fraction (C32) [%] | cleaved PARP positive nuclei fraction (CBRC008) [%] | cleaved PARP positive nuclei fraction (CBRC013) [%] | cleaved PARP positive nuclei fraction (CBRC014) [%] | cleaved PARP positive nuclei fraction (CBRC016) [%] | cleaved PARP positive nuclei fraction (CBRC017) [%] |
| --- | --- | --- | --- | --- | --- | --- | --- | --- | --- | --- |
| NC1(c2ccc(-c3nc4ccn5c(=O)[nH]nc5c4cc3-c3ccccc3)cc2)CCC1 + CC1(C)NC(=O)N(c2ccc([N+](=O)[O-])c(C(F)(F)F)c2)C1=O [nilutamide] (first compound 0.4 µM, partner dose 1 µM) | 141 | 570 | 134 | 55.6 | 101 | 64.3 | 70.4 | 76.1 | 65.1 | 81.2 |
| CCCCCCCCc1ccc(CCC(N)(CO)CO)cc1 [fingolimod] + CO[C@@H]1[C@H](N(C)C(=O)c2ccccc2)C[C@H]2O[C@]1(C)n1c3ccccc3c3c4c(c5c6ccccc6n2c5c31)C(=O)NC4 [Midostaurin] (first compound 2 µM, partner dose 0.08 µM) | 107 | 188 | 75.5 | 95.4 | 64.8 | 107 | 77.2 | 101 | 79.2 | 158 |
| NC(=O)c1ccc(N(C(N)=O)c2c(F)cccc2F)nc1-c1ccc(F)cc1F + CN(NC(=O)CC(=O)NN(C)C(=S)c1ccccc1)C(=S)c1ccccc1 [STA4783] (first compound 0.4 µM, partner dose 0.006 µM) | 200 | 94.2 | 38.1 | 4620 | 170 | 2820 | 182 | 689 | 225 | 218 |
| COc1ccc(C2=N[C@@H](c3ccc(Cl)cc3)[C@@H](c3ccc(Cl)cc3)N2C(=O)N2CCNC(=O)C2)c(OC(C)C)c1 [Nutlin-3] + NCC(=O)Nc1ccc(-n2nc(C(F)(F)F)cc2-c2ccc3c(ccc4ccccc43)c2)cc1 [OSU03012] (first compound 0.1 µM, partner dose 1 µM) | 178 | 123 | 156 | 3140 | 141 | 488 | 101 | 95.7 | 300 | 113 |
| C[C@]1(O)C[C@@H](c2nc(-c3ccc4ccc(-c5ccccc5)nc4c3)c3c(N)nccn32)C1 + CN(C)S(=O)(=O)c1ccc2c(c1)/C(=C/c1cc3c([nH]1)CCCC3)C(=O)N2 [SU6656] (first compound 0.4 µM, partner dose 0.4 µM) | 120 | 125 | 69.4 | 302 | 239 | 286 | 138 | 90.1 | 81.4 | 151 |
| CN(c1ncccc1CNc1nc(Nc2ccc3c(c2)CC(=O)N3)ncc1C(F)(F)F)S(C)(=O)=O + O=C(O)c1ccc(-c2c[nH]c3ncc(-c4ccccc4)cc23)cc1C1CCCC1 [GSK650394] (first compound 0.08 µM, partner dose 0.16 µM) | 41.8 | 227 | 133 | 69 | 262 | 325 | 149 | 28.8 | 106 | 105 |
| C[C@@H](N)c1ccc(C(=O)Nc2ccnc3[nH]ccc23)cc1 + COc1cc(Nc2ncc(F)c(Nc3ccc4c(n3)NC(=O)C(C)(C)O4)n2)cc(OC)c1OC [Tamatinib] (first compound 0.4 µM, partner dose 0.4 µM) | 102 | 105 | 88.9 | 136 | 101 | 269 | 129 | 104 | 187 | 92.1 |
| Cn1sc(=O)n(Cc2ccccc2)c1=O + CO[C@@H]1[C@H](N(C)C(=O)c2ccccc2)C[C@H]2O[C@]1(C)n1c3ccccc3c3c4c(c5c6ccccc6n2c5c31)C(=O)NC4 [Midostaurin] (first compound 0.4 µM, partner dose 0.08 µM) | 85.1 | 88.8 | 142 | 187 | 106 | 145 | 177 | 110 | 110 | 81.7 |
| CCCCCCCCc1ccc(CCC(N)(CO)CO)cc1 [fingolimod] + C[C@@H]1CCN(C(=O)CC#N)C[C@@H]1N(C)c1ncnc2[nH]ccc12 [CP690550] (first compound 2 µM, partner dose 1 µM) | 211 | 147 | 71.2 | 83.4 | 133 | 87.8 | 158 | 95.1 | 102 | 119 |
| NC(=O)c1ccc(N(C(N)=O)c2c(F)cccc2F)nc1-c1ccc(F)cc1F + COc1cc2c(Oc3ccc4[nH]c(C)cc4c3F)ncnc2cc1OCCCN1CCCC1 [cediranib] (first compound 0.4 µM, partner dose 0.4 µM) | 80.1 | 52.2 | 129 | 157 | 141 | 75.4 | 147 | 158 | 74.4 | 137 |
